# Assay results taken from the supplement of paper PMC3334620.
# Over roughly 33,000 sequences, “E-score (-0.5 to 0.5)” has its median near -0.0014; the highest 2% begin near 0.25. Some of the results follow.
# Target: T1, Cad1 (UniProt P24813)
# T1 sequence: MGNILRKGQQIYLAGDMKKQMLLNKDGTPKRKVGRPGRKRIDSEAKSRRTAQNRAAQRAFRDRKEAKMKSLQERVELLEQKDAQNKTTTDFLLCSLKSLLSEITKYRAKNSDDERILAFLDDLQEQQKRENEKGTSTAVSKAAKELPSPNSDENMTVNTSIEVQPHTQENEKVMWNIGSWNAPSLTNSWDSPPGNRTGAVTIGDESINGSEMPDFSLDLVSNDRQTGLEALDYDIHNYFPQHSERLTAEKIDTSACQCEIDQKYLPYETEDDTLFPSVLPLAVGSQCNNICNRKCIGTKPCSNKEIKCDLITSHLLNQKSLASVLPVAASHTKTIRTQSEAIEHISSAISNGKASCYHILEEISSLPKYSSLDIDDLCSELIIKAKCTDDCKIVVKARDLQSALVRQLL
# Experiment: PBM E-score (8-mer binding enrichment) (E-score (-0.5 to 0.5)); higher = stronger / more preferred TF binding
# Conditions: protein concentration: 100 nM; construct: GST-full length
# Method in brief: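 Detection of bound protein used fluorescent anti-GST, with scans normalised by masliner. The proteins were GST-tagged yeast transcription factors applied at about 100-200 nM to universal all-10-mer Agilent arrays made double-stranded by primer extension. Each ungapped eight-base word, pooled with its reverse complement, was scored with an E-score from the Universal PBM Analysis Suite.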
row,Sequence,PBM E-score
1,AGTGGTAT,-0.0581
2,AATCGCCA,-0.123
3,TCAAGGAA,0.0199
4,AAGAGTGC,-0.176
5,ACAAGTAT,0.0903
6,ACACAACA,-0.00322
7,AATGTTTC,0.0615
8,AATGGATG,0.0553
9,ACAGGTAA,0.0238
10,GTTCTGGA,0.0895
11,CGGTTGAA,0.112
12,AGAGACGC,-0.0121
13,ATCGGAGG,-0.0261
14,ACATGCGG,0.00676
15,AGTGGAGG,-0.138
16,GCTATGCA,-0.0437
17,CTAGAGCA,-0.184
18,ATCTACTC,-0.0691
19,GTACAGGA,0.0846
20,ACTGTAAT,0.111
21,ACGCCGTG,-0.00375
22,ATTCTCAC,0.08
23,GCCGCGAC,0.0507
24,AATCATCG,0.00665
25,GGGCGACA,-0.162

row,Sequence,PBM E-score
1,ATCCCGAG,0.104
2,ATTAGGCC,0.141
3,GAGGAATA,0.172
4,CATGTTAA,0.127
5,ACCAGTCC,-0.248
6,ACTTTTTG,-0.00087
7,GTACTACA,0.0249
8,TAGAATGA,0.0138
9,GACTTATC,-0.0389
10,CACTTGAC,0.0629
11,AGCTACTA,0.0659
12,GCCCCGGC,-0.216
13,CGGTCCAC,-0.111
14,GGGCACGA,-0.0581
15,AAGAGCCG,0.0668
16,GCTTAAGC,0.167
17,CTCGGATA,0.193
18,CGTCAAGA,-0.144
19,TAGACCTA,-0.0838
20,CTTCTTTC,-0.114
21,GCGCGAGA,0.17
22,ATGGGGTC,-0.106
23,TGAGGTAA,-0.0482
24,CGTAAACC,-0.0624
25,ATGATCAT,0.238

row,Sequence,PBM E-score
1,CGAGGGCC,-0.0726
2,AAAGGAGG,-0.268
3,CAATAATC,0.186
4,GAAGTCTC,0.077
5,CGGAAACA,-0.0499
6,GATACACC,0.257
7,AGGCCGGA,-0.162
8,CATAGACG,0.0683
9,ACGAACGT,0.0788
10,CGCGACAA,0.24
11,AGCCACAT,0.104
12,AACAGTGT,-0.00803
13,CACAAGCC,-0.109
14,CGACGATC,0.153
15,CCCATTTA,-0.0471
16,CTCACTTC,-0.0448
17,GATTTGGC,0.0193
18,ATGCCCGA,-0.0531
19,AGCATAGA,0.0341
20,ACGTCACT,0.15
21,CCACATAA,0.0159
22,CGGCGCAA,0.0297
23,TAATATTA,0.424
24,CCTCTCGC,-0.188
25,ATCGCAAT,0.167

row,Sequence,PBM E-score
1,AATATAAA,0.251
2,AGTCTAGC,-0.184
3,GACATCCC,0.138
4,ATATTACA,0.347
5,CTTGGTAA,0.0981
6,CGGTTGGC,0.0738
7,GGCAGAAC,-0.0675
8,GAATCGTC,0.0319
9,CTCAACAA,0.0921
10,ATTCGAGG,-0.0551
11,CCAGAGGG,-0.25
12,ATCTTTGG,-0.159
13,GATCCTAA,-0.048
14,AGCCGTCA,0.035
15,CGTACCAG,-0.0767
16,TTGGACAA,0.0833
17,ATGTACAT,0.248
18,AGATCGTA,-0.0956
19,ATGGTAAT,0.119
20,AACCATGG,0.0546
21,AGCCACGG,-0.149
22,CTAGGTGA,-0.148
23,ACGCACGC,0.135
24,CGTAGCCA,-0.0711
25,CAGTGCAG,-0.0154

# 49 entries from above, with tabs:
row	Sequence	PBM E-score
24	CGTAAACC	-0.0624
25	ATGATCAT	0.238
1	CGAGGGCC	-0.0726
2	AAAGGAGG	-0.268
3	CAATAATC	0.186
5	CGGAAACA	-0.0499
6	GATACACC	0.257
7	AGGCCGGA	-0.162
8	CATAGACG	0.0683
9	ACGAACGT	0.0788
10	CGCGACAA	0.24
11	AGCCACAT	0.104
12	AACAGTGT	-0.00803
13	CACAAGCC	-0.109
14	CGACGATC	0.153
15	CCCATTTA	-0.0471
16	CTCACTTC	-0.0448
17	GATTTGGC	0.0193
18	ATGCCCGA	-0.0531
19	AGCATAGA	0.0341
20	ACGTCACT	0.15
21	CCACATAA	0.0159
22	CGGCGCAA	0.0297
23	TAATATTA	0.424
24	CCTCTCGC	-0.188
25	ATCGCAAT	0.167
1	AATATAAA	0.251
2	AGTCTAGC	-0.184
3	GACATCCC	0.138
4	ATATTACA	0.347
5	CTTGGTAA	0.0981
6	CGGTTGGC	0.0738
7	GGCAGAAC	-0.0675
8	GAATCGTC	0.0319
9	CTCAACAA	0.0921
10	ATTCGAGG	-0.0551
11	CCAGAGGG	-0.25
12	ATCTTTGG	-0.159
13	GATCCTAA	-0.048
14	AGCCGTCA	0.035
15	CGTACCAG	-0.0767
16	TTGGACAA	0.0833
17	ATGTACAT	0.248
18	AGATCGTA	-0.0956
20	AACCATGG	0.0546
21	AGCCACGG	-0.149
22	CTAGGTGA	-0.148
23	ACGCACGC	0.135
25	CAGTGCAG	-0.0154

# Continuation:

row,Sequence,PBM E-score
1,ACTGAAGG,-0.0483
2,AAACCTGA,-0.019
3,GCGCTTGA,0.185
4,GCAGACAA,0.0665
5,AGCACGCC,-0.0364
6,AGGAGGTA,-0.166
7,CAGACTTC,-0.0781
8,AGACCCAC,-0.0306
9,ATTTTAGA,-0.101
10,GGTCCAAA,-0.0949
11,GGCCCGAA,0.15
12,ATGGGTTA,0.0421
13,CCGCTTCA,0.0411
14,AGAGAGAT,-0.00189
15,AAAGCCAA,-0.0764
16,CCTGTAAA,-0.0844
17,CCCTGAAA,-0.0497
18,AGATATGG,0.0179
19,GATCGGGC,0.00085
20,AGTTTCCC,0.0233
21,CCACGAGC,0.0134
22,ACTTTTAA,0.00326
23,CGCGAAGA,0.273
24,ACTGCGGA,-0.0651
25,ACCGCGCT,0.085

row,Sequence,PBM E-score
1,ACTCTCGC,-0.0414
2,AGGAACGA,-0.168
3,CCGACTGC,-0.135
4,ACTCAGCT,-0.0714
5,ATCTGCAA,-0.0858
6,ACTGCGCA,0.0568
7,AATTACTG,0.14
8,ACCCCATC,-0.0268
9,CATGGACC,-0.126
10,ACAGTTGA,-0.0318
11,AGGTAAAG,0.267
12,ATCCGACC,-0.0165
13,ATCAGTAG,0.0136
14,AGTTTATA,0.232
15,CCCATAAC,-0.152
16,AGCTTCCG,0.185
17,CCATGTCG,0.0544
18,CGAATTAA,0.132
19,AAACGTGC,-0.16
20,ATGGCGTC,0.0759
21,ACTTGCGA,0.126
22,AAGTATAT,0.00502
23,ACAAGCCC,-0.145
24,CCGGACCA,-0.102
25,AGCACTGA,0.0602

row,Sequence,PBM E-score
1,ACGTTATC,-0.0185
2,GCCACCGA,-0.127
3,AGACCGAC,-0.0885
4,AACAGCCT,-0.164
5,ATCCTGAC,0.0925
6,CGAAATCC,0.0502
7,TGGAGTAA,0.149
8,CCCAGGGA,-0.44
9,TCTTGCAA,0.0683
10,ATATTTTA,0.173
11,CGAGTATA,0.138
12,ACATATGC,-0.245
13,CGCTAACA,0.0296
14,GTTGCGCA,0.0816
15,GTGTCCGA,0.0562
16,AAGACCTT,-0.0766
17,ATTCCGTC,-0.0303
18,TGTCCAAA,0.0578
19,AAGCCTAC,0.0195
20,AGGAGGAT,-0.0825
21,CACCGGGC,-0.27
22,GGGGGTGA,-0.29
